# Data source: PubChem BioAssay AID1259314 (Drosophila RNAi Screening Center, 2017)
# Assay: 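Modifiers of manganese chloride toxicity in fly cells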 (primary screen)
# System: Drosophila S2R+ cells
# Reagents: long dsRNA against Drosophila genes
# Timing: 5 days (4 days knock-down, then 1 day metal exposure)
# Challenge: manganese chloride added to 15 mM for 24 hours
# Read-out: 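Cellular ATP measured by luciferase light, scaled to the plate mean, averaged across replicates and z-scored over plates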
# Direction: mean ATP z-score: higher = more ATP than the plate average, more viable cells under manganese
# Active means: 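Called active when the mean ATP z-score is above 1.5 or below -1.5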
# Meaning of the calls: active = strong ATP change, up or down; inactive = no strong ATP change
# Shown is one part, drawn at random, of about 3,100 reagents tested. Of all reagents, 289 (9.3%) are marked active. 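Active includes both higher and lower ATP than plate average; check the z-score sign for direction.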 Entries without a mark were called inactive. Reagents against one gene are numbered here. Names joined by + are all predicted targets of the reagent. Reagent sequences are not shown. Not stated in the record: the amount of reagent.
Target gene,reagent no.,mean ATP z-score
CG9308,1,-0.783
CG9308,2,-0.352
Eato (Engulfment ABC Transporter in the ovary),1,-0.489
Eato (Engulfment ABC Transporter in the ovary),2,1.05
Lrch (Leucine-rich-repeats and calponin homology domain protein),1,0.219
Lrch (Leucine-rich-repeats and calponin homology domain protein),2,1.11
acs (arcus),1,1.49
acs (arcus),2,-0.0105
Sc2,1,2.31 (active)
Sc2,2,-0.575
Spase12 + CG2006,1,1
nrv2 (nervana 2),1,-0.0399
nrv2 (nervana 2),2,-0.406
Grl43a (Gustatory receptor-like 43a),1,0.69
Cirl (Calcium-independent receptor for alpha-latrotoxin),1,0.0155
Cirl (Calcium-independent receptor for alpha-latrotoxin),2,0.363
SerT (Serotonin transporter),1,0.255
SerT (Serotonin transporter),2,-0.653
CG8237,1,0.827
CG8237,2,-1.35
brv3 (brivido-3),1,-0.49
promL (prominin-like),1,1.15
amx (almondex),1,-1.54 (active)
amx (almondex),2,1.66 (active)
Or22a (Odorant receptor 22a),1,-0.735
CG10761,1,0.259
CG10761,2,1.13
CG8654,1,3.56 (active)
ppk8 (pickpocket 8),1,-1.89 (active)
ppk8 (pickpocket 8),2,-1.28
Rh2 (Rhodopsin 2),1,0.268
Rh2 (Rhodopsin 2),2,1.58 (active)
CG12376,1,-0.464
CG12376,2,0.895
CG1632,1,1.19
CG1632,2,0.326
hid (head involution defective),1,0.586
hid (head involution defective),2,-0.571
CG33969,1,-0.387
boi,1,1.2
boi,2,-0.0682
Ndae1 (Na[+]-driven anion exchanger 1),1,2.14 (active)
Ndae1 (Na[+]-driven anion exchanger 1),2,-0.115
Or56a (Odorant receptor 56a),1,-0.0282
Or56a (Odorant receptor 56a),2,0.429
CG13784,1,1.03
PIG-N (Phosphatidylinositol glycan anchor biosynthesis class N),1,-0.314
GluClalpha (Glutamate-gated chloride channel subunit alpha),1,0.147
Drl-2 (Derailed 2),1,0.346
Drl-2 (Derailed 2),2,-0.837
Drl-2 (Derailed 2),3,0.608
Drl-2 (Derailed 2),4,0.282
Gr59b (Gustatory receptor 59b),1,0.203
osy (oskyddad),1,-0.0607
osy (oskyddad),2,-0.386
osy (oskyddad),3,0.963
asRNA:CR30267 + CG42260,1,0.0746
Or43a (Odorant receptor 43a),1,-0.765
mthl4 (methuselah-like 4),1,1.88 (active)
CG10702,1,0.142
CG10702,2,-0.0967
CG10702,3,-0.624
Gr47b (Gustatory receptor 47b),1,0.107
Gr47b (Gustatory receptor 47b),2,-0.204
smog,1,-0.325
smog,2,-0.467
smog,3,1.54 (active)
zyd (zydeco),1,-0.488
zyd (zydeco),2,-0.803
PIG-Wa (Phosphatidylinositol glycan anchor biosynthesis class W a),1,0.649
kcc (kazachoc),1,-0.525
kcc (kazachoc),2,1.06
Pkd2 (Polycystic kidney disease 2),1,0.33
Pkd2 (Polycystic kidney disease 2),2,0.0847
Calx (Na/Ca-exchange protein),1,0.874
Calx (Na/Ca-exchange protein),2,-0.234
Calx (Na/Ca-exchange protein),3,-0.593
Calx (Na/Ca-exchange protein),4,1.62 (active)
CG1909,1,0.713
CG1909,2,0.0923
Slc45-1,1,-0.886
CG11537,1,-1.14
CG11537,2,-0.631
Cse1 (Chromosome segregation 1),1,-1.96 (active)
CG18549,1,-0.23
CG18549,2,-0.321
Atf-2 + CG44247,1,-0.873
Atf-2 + CG44247,2,-0.683
CG3625,1,1.08
CG3625,2,-0.584
Scgdelta (Sarcoglycan delta),1,3.41 (active)
Or83a + CG1172,1,-0.322
Or83a + CG1172,2,-0.556
rdo (reduced ocelli),1,0.911
rdo (reduced ocelli),2,-0.494
CG7342,1,-0.711
CG7342,2,-0.776
CG2901,1,-0.217
CG2901,2,-0.345
PMCA (plasma membrane calcium ATPase),1,-0.833
PMCA (plasma membrane calcium ATPase),2,-1.17
PMCA (plasma membrane calcium ATPase),3,-1.29
"Alg10 (ALG10 alpha-1,2-glucosyltransferase)",1,-1.14
"Alg10 (ALG10 alpha-1,2-glucosyltransferase)",2,1.81 (active)
CG8850,1,0.186
CG8850,2,0.991
CG13248,1,-0.515
CG13248,2,0.104
Kr-h2 (Kruppel homolog 2),1,1.65 (active)
Kr-h2 (Kruppel homolog 2),2,0.135

Laid out differently: results already given.
| Target gene | reagent no. | mean ATP z-score |
| --- | --- | --- |
| amx (almondex) | 2 | 1.66 (active) |
| Or22a (Odorant receptor 22a) | 1 | -0.735 |
| CG10761 | 1 | 0.259 |
| CG10761 | 2 | 1.13 |
| CG8654 | 1 | 3.56 (active) |
| ppk8 (pickpocket 8) | 1 | -1.89 (active) |
| ppk8 (pickpocket 8) | 2 | -1.28 |
| Rh2 (Rhodopsin 2) | 1 | 0.268 |
| Rh2 (Rhodopsin 2) | 2 | 1.58 (active) |
| CG12376 | 1 | -0.464 |
| CG12376 | 2 | 0.895 |
| CG1632 | 1 | 1.19 |
| CG1632 | 2 | 0.326 |
| hid (head involution defective) | 1 | 0.586 |
| hid (head involution defective) | 2 | -0.571 |
| CG33969 | 1 | -0.387 |
| boi | 1 | 1.2 |
| boi | 2 | -0.0682 |
